Laboratory results from PMC7819943, “Rice protein-binding microarrays: a tool to detect cis-acting elements near promoter regions in rice”.
The list shows a part of the results.

Molecular target: T1, OsSMF1 (Oryza sativa, UniProt Q6ZLB0 1-436)
T1 sequence: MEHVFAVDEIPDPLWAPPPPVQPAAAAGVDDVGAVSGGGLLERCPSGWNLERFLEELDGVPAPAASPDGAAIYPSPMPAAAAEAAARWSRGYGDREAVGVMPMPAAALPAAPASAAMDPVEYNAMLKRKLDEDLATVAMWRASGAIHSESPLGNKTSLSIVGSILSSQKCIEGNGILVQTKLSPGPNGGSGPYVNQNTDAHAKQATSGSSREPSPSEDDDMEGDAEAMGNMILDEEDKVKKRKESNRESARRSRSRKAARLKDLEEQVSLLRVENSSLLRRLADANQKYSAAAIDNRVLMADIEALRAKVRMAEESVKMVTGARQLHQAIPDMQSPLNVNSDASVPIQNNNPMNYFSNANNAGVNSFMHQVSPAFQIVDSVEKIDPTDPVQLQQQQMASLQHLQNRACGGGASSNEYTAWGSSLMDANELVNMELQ
Assay: protein-binding microarray (RPBM); PBS, 2% BSA, 51.3 ng/ul salmon testes DNA, 50 uM zinc acetate, 200 nM TF, 25 C, 1 h; high values mean tight binding
Settings: protein: recombinant; tags: N-terminal polyhistidine and DsRed monomer fusion (pET32a); chain copies: 2; label: CyDye5-dUTP incorporated in the synthesized complementary strand; 3' TTTTT single-stranded linker to array surface; dsDNA, one strand shown
Summary of the method: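 Using Ni–NTA, transcription factors fused N-terminally to polyhistidine and DsRed were purified after expression in E. coli BL21-CodonPlus. These were incubated at 200 nM with a blocked, double-stranded custom Agilent array for 1 h at 25 °C in a buffer containing 50 µM zinc acetate, and the array was washed. The binding signal is per-feature fluorescence intensity (arbitrary units) on an Axon 4000B scanner.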

| Sequence | binding signal |
| --- | --- |
| ACAAATAAGCCATGTTAATTTGAGTCAACTGACTAATGCGCGGAGTCACCTAGTGCAG | 3910 fluorescence intensity (a.u.) |
| AGCTTCATTGACGCCATTCGCGACCGGCCGCCGCCCTCGCCGGAGTCACCTAGTGCAG | 3470 fluorescence intensity (a.u.) |
| CTTGGCTGTTCTTGGGTGGGTGAGGTGGGGCGGTCGGATCCGGAGTCACCTAGTGCAG | 6160 fluorescence intensity (a.u.) |
| CAGGTGAGGATGTTGCCAGCGTGCATGTCGGCGTTGGCCACGGAGTCACCTAGTGCAG | 3300 fluorescence intensity (a.u.) |
| TTAAACCCAGAGATGTTTTGTAGCTAGCGTGACACAAACTCGGAGTCACCTAGTGCAG | 4070 fluorescence intensity (a.u.) |
| GACGAACGGTCAAACGTTGGACACGGAAACCAGGTTTGTCCGGAGTCACCTAGTGCAG | 3460 fluorescence intensity (a.u.) |
| CAAGGTTCCCAAGTACATCATCCTAGGCTCCATTCGAGCTCGGAGTCACCTAGTGCAG | 3230 fluorescence intensity (a.u.) |
| CGTCGGCGGCGGCGGAGGGGAGGACGACGTGGTCGACCTCCGGAGTCACCTAGTGCAG | 3590 fluorescence intensity (a.u.) |
| CGCGCAGATTTTCCCGGATGGGGCGTGTGCGGCTGCCACGCGGAGTCACCTAGTGCAG | 4420 fluorescence intensity (a.u.) |
| TTACACCACATTATAAAATCATGACGCAATTAGGCTTAAACGGAGTCACCTAGTGCAG | 4200 fluorescence intensity (a.u.) |
| CTCCAACGAAATCTTCGCCGTGTCAACCCGCGCCTCCGATCGGAGTCACCTAGTGCAG | 4730 fluorescence intensity (a.u.) |
| ACACATCTAGTTTTACTACACACCAACCCACACGTATAGGCGGAGTCACCTAGTGCAG | 3610 fluorescence intensity (a.u.) |
| CTCTCTCTCTTACCTCACGCGCTCCACGCACGCAGAGTCGCGGAGTCACCTAGTGCAG | 5390 fluorescence intensity (a.u.) |
| GTCTTTCTGTAGAGGACACCAACCATGTGTGATGTGTCCACGGAGTCACCTAGTGCAG | 5470 fluorescence intensity (a.u.) |
| AGAAATACGTGTTATAGGTCAACTTAAATTTGTTATTCCCCGGAGTCACCTAGTGCAG | 3330 fluorescence intensity (a.u.) |
| TCCCGCCCATGGTCGATCTGCGTCATGTCGCTGTTGACCCCGGAGTCACCTAGTGCAG | 6190 fluorescence intensity (a.u.) |
| CGCGTGCGGTCTCTCCCGCGCGACTGAACACGTGTCGCGCCGGAGTCACCTAGTGCAG | 5850 fluorescence intensity (a.u.) |
| CCCCTCCACCGCATCCACGCCGCGTCCCGCTTCGCCTCCTCGGAGTCACCTAGTGCAG | 3230 fluorescence intensity (a.u.) |
| ATGCTACACACGTCAGCCGTTTGGCACGACACTGGACGCCCGGAGTCACCTAGTGCAG | 11900 fluorescence intensity (a.u.) |
| TGAAAAGACTTTAAGTACCACGTCAATGTCACATAGGCTCCGGAGTCACCTAGTGCAG | 7100 fluorescence intensity (a.u.) |
| GGAGGAATCCGTCTCAAGCAACATAATTACCATCAAGTTGCGGAGTCACCTAGTGCAG | 28800 fluorescence intensity (a.u.) |

Part of the list above in another layout.
Sequence	binding signal
ACACATCTAGTTTTACTACACACCAACCCACACGTATAGGCGGAGTCACCTAGTGCAG	3610 fluorescence intensity (a.u.)
GGAGGAATCCGTCTCAAGCAACATAATTACCATCAAGTTGCGGAGTCACCTAGTGCAG	28800 fluorescence intensity (a.u.)

Continued:

| Sequence | binding signal |
| --- | --- |
| TCGCAACCAAGAATCTCCAGTCACGCTAGCCTTTCTGCAACGGAGTCACCTAGTGCAG | 4520 fluorescence intensity (a.u.) |
| TAGATGGGCTTTAATCCCGGCCCACGTACATGTGTAGGCCCGGAGTCACCTAGTGCAG | 3350 fluorescence intensity (a.u.) |
| TGCACCATGTTTCATTGCGTGATGTACATAGCATAATTTTCGGAGTCACCTAGTGCAG | 6820 fluorescence intensity (a.u.) |
| TGAAGTAGGATGGGCTATGACTTGGGCCCTCAAAGGTTATCGGAGTCACCTAGTGCAG | 3400 fluorescence intensity (a.u.) |
| TGCTATGCACATGCCACGTTAATGATGACAAAGTCAAAATCGGAGTCACCTAGTGCAG | 5080 fluorescence intensity (a.u.) |
| AAAACCGTACCACAAGGGGAAAATGGGAGCGACAGATACCCGGAGTCACCTAGTGCAG | 3540 fluorescence intensity (a.u.) |
| CTAATTGTCTAGTGGCCATTGGAACGACATTGCCCTGCATCGGAGTCACCTAGTGCAG | 4400 fluorescence intensity (a.u.) |
| ATAATATAAAACGGATGGATCACATGCTATGAACCTATGACGGAGTCACCTAGTGCAG | 51200 fluorescence intensity (a.u.) |
| TCTCCACTCTCCGATCCCCACGTATGGCGGCGGCGGCGGCCGGAGTCACCTAGTGCAG | 3660 fluorescence intensity (a.u.) |
| TTCCTAGTGACCGTCCTCATCGCCTCGCGTGAGTCATCTTCGGAGTCACCTAGTGCAG | 27000 fluorescence intensity (a.u.) |
| CAAGATAGTTAACATGTAATATATCACTTCACAAACATGCCGGAGTCACCTAGTGCAG | 28300 fluorescence intensity (a.u.) |
| CAGACAGACACAGAGAGATCGATATCAACATGCTTTAGTCCGGAGTCACCTAGTGCAG | 3710 fluorescence intensity (a.u.) |
| ACCGTGCAACCGTCAACCGGAGGAGATCCACGCGTTGGCACGGAGTCACCTAGTGCAG | 4920 fluorescence intensity (a.u.) |
| AAAGGCTGCACACCCTGACACCTCCACTCCTCCATTCCCCCGGAGTCACCTAGTGCAG | 4040 fluorescence intensity (a.u.) |
| AAATTTAAGAATTTTCGGATGCACTTAAAGAAGGACAAGTCGGAGTCACCTAGTGCAG | 11000 fluorescence intensity (a.u.) |
| TATGGAGGAGGCTGGCGAGCGGGACGCTGACGAGACGCACCGGAGTCACCTAGTGCAG | 5340 fluorescence intensity (a.u.) |
| TGACAGGTTGATGTGATGGAAAAGGACTGAAGGTTGGATCCGGAGTCACCTAGTGCAG | 42400 fluorescence intensity (a.u.) |
| TACCATGCACGCGGGAGCACCGTACCAAATGTGCCCACCACGGAGTCACCTAGTGCAG | 23900 fluorescence intensity (a.u.) |
| AAGCAAGCGTACTATAGTTCAGCTATAAATAGCAGATGACCGGAGTCACCTAGTGCAG | 3250 fluorescence intensity (a.u.) |
| ATCCATCCTCCGGAGCAAACATGACACATTGACGATCTCCCGGAGTCACCTAGTGCAG | 5140 fluorescence intensity (a.u.) |
| CGACATTAAAGATTATGAATATTATGGGCAAATATAGGTCCGGAGTCACCTAGTGCAG | 57600 fluorescence intensity (a.u.) |

2 entries drawn at random from those above, as already listed:

| Sequence | binding signal |
| --- | --- |
| CAGACAGACACAGAGAGATCGATATCAACATGCTTTAGTCCGGAGTCACCTAGTGCAG | 3710 fluorescence intensity (a.u.) |
| AAGCAAGCGTACTATAGTTCAGCTATAAATAGCAGATGACCGGAGTCACCTAGTGCAG | 3250 fluorescence intensity (a.u.) |
